From article PMC11106861
No constants are given. Whether binding was seen depends on the method and setting. Binding seen in cells or lysates may run through a third protein. Binding calls can cover weak binding; strength is not graded here.

Columns and labels:
[1] = biological target: T1, Suppressor of Hairy wings (Su(Hw)) insulator-binding protein (Drosophila (endogenous in S2 cells)) (UniProt P08970); test: co-IP; immunoprecipitations from nuclear protein extract of Drosophila S2 cells with antibodies against Combgap or Su(Hw); IgG of non-immunized rabbits as negative control; Western blot
T1 sequence: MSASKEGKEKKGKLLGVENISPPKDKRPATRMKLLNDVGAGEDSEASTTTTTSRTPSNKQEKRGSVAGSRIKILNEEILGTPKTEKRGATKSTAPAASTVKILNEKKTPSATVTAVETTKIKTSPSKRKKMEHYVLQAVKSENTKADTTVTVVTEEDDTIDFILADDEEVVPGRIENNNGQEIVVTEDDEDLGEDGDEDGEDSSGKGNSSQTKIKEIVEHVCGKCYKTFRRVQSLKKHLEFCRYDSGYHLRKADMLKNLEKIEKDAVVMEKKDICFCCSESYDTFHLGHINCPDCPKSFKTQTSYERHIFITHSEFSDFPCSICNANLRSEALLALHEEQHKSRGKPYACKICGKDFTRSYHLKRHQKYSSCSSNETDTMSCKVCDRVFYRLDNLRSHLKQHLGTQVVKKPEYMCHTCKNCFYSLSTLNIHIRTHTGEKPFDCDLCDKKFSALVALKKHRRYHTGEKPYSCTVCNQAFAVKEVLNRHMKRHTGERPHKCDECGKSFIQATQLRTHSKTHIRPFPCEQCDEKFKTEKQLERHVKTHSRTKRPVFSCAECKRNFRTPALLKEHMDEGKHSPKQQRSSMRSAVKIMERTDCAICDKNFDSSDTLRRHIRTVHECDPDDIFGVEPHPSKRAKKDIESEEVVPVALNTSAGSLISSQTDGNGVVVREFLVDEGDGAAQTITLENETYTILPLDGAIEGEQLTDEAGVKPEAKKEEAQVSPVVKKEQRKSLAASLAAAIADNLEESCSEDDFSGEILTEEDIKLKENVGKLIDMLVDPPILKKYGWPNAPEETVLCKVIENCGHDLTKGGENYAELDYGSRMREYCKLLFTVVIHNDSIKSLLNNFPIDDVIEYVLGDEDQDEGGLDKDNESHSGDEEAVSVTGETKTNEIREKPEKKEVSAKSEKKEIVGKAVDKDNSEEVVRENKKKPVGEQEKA

[2] = biological target: Combgap (Drosophila (endogenous in S2 cells)); test: as above

Molecule | binding [1] | binding [2]
Combgap (Drosophila (endogenous in S2 cells)) | binds | –
Suppressor of Hairy wings (Su(Hw)) insulator-binding protein (protein, UniProt P08970 1-941) MSASKEGKEKKGKLLGVENISPPKDKRPATRMKLLNDVGAGEDSEASTTTTTSRTPSNKQEKRGSVAGSRIKILNEEILGTPKTEKRGATKSTAPAASTVKILNEKKTPSATVTAVETTKIKTSPSKRKKMEHYVLQAVKSENTKADTTVTVVTEEDDTIDFILADDEEVVPGRIENNNGQEIVVTEDDEDLGEDGDEDGEDSSGKGNSSQTKIKEIVEHVCGKCYKTFRRVQSLKKHLEFCRYDSGYHLRKADMLKNLEKIEKDAVVMEKKDICFCCSESYDTFHLGHINCPDCPKSFKTQTSYERHIFITHSEFSDFPCSICNANLRSEALLALHEEQHKSRGKPYACKICGKDFTRSYHLKRHQKYSSCSSNETDTMSCKVCDRVFYRLDNLRSHLKQHLGTQVVKKPEYMCHTCKNCFYSLSTLNIHIRTHTGEKPFDCDLCDKKFSALVALKKHRRYHTGEKPYSCTVCNQAFAVKEVLNRHMKRHTGERPHKCDECGKSFIQATQLRTHSKTHIRPFPCEQCDEKFKTEKQLERHVKTHSRTKRPVFSCAECKRNFRTPALLKEHMDEGKHSPKQQRSSMRSAVKIMERTDCAICDKNFDSSDTLRRHIRTVHECDPDDIFGVEPHPSKRAKKDIESEEVVPVALNTSAGSLISSQTDGNGVVVREFLVDEGDGAAQTITLENETYTILPLDGAIEGEQLTDEAGVKPEAKKEEAQVSPVVKKEQRKSLAASLAAAIADNLEESCSEDDFSGEILTEEDIKLKENVGKLIDMLVDPPILKKYGWPNAPEETVLCKVIENCGHDLTKGGENYAELDYGSRMREYCKLLFTVVIHNDSIKSLLNNFPIDDVIEYVLGDEDQDEGGLDKDNESHSGDEEAVSVTGETKTNEIREKPEKKEVSAKSEKKEIVGKAVDKDNSEEVVRENKKKPVGEQEKA | – | binds
